Test results from article PMC12073896.
No constants are given. Whether binding was seen depends on the method and setting. For part of these data: Binding seen in cells or lysates may run through a third protein. Some results given as binding are weak or reduced against the parent protein; the word gives no strength. Each block holds one substance with its values, some of them ahead of it.

Protein sequences, listed by entry. Tags and fused reporters are not part of them.
UniProt Q96RR4: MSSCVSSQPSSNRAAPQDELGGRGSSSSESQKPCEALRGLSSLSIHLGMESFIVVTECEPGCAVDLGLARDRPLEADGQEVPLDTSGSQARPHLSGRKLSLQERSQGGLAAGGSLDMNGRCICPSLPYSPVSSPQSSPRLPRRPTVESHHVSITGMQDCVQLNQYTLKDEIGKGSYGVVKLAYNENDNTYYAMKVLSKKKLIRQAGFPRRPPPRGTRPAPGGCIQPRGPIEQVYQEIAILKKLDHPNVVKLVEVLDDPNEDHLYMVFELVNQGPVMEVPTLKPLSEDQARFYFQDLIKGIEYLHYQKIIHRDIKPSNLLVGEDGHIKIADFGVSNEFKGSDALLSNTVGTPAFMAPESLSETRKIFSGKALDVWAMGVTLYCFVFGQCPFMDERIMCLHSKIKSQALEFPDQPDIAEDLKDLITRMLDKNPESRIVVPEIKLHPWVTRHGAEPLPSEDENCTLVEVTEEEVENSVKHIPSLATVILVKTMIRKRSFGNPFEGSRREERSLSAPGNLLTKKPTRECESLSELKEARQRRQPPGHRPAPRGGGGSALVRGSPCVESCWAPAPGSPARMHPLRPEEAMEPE
UniProt Q03135: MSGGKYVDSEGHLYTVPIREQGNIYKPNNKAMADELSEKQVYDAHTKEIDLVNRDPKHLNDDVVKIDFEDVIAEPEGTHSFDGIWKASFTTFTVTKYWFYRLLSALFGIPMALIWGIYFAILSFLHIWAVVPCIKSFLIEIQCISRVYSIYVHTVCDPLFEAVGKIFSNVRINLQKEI

What was measured:
[1] = target: HA-tagged CaMKK2 (calcium–calmodulin-dependent protein kinase kinase 2) (human) (UniProt Q96RR4); experiment: co-IP; HK-2 cells co-transfected with Flag-tagged CAV1 and HA-tagged CaMKK2 for 48 h; lysates incubated overnight at 4°C with Anti-Flag Affinity Gel or HA antibodies; Western blot with anti-Flag and anti-HA
[2] = target: Flag-tagged CAV1 (Caveolin-1) (human) (UniProt Q03135); experiment: as above
[3] = target: GST-CAMKK2 fusion protein (UniProt Q96RR4); experiment: pull-down; GST-CAMKK2 on Sepharose 4B beads; 20 μL SUMO-CAV1-His protein solution added; 4–8 h at 4°C on a shaker; GST-coupled beads as negative control; Western blot; both purified

binding [1]: binds
Substance: Flag-tagged CAV1 (Caveolin-1) (from UniProt Q03135 1-178)

binding [2]: binds
Substance: HA-tagged CaMKK2 (calcium–calmodulin-dependent protein kinase kinase 2) (from UniProt Q96RR4 1-588) (enzyme)

binding [3]: binds
Substance: SUMO-CAV1-His fusion protein (from UniProt Q03135 1-178)
